Data reported in patent publication US20150285789A1, “ASSAYS, SYSTEMS, AND METHODS FOR OBTAINING PERSONALIZED ANABOLIC PROFILES” (BOSTON MEDICAL CENTER CORPORATION, priority 2012, published 2015).
Read-outs that look alike come from different tables or passages of the source. At least one compound was matched to its structure with a doubt left.

What was measured:
[1] = system: MC3T3 pre-osteoblast cells; experiment: qRT-PCR of osteoblast transcripts (Runx2, Osx, Ocn); format: cell-based, mouse; conditions: for Ocn transcripts (late differentiation): 100 ng/mL compound, with or without BMP-2, day 14; for Osx mRNA levels / Runx2 mRNA levels: compound alone, without BMP-2, 24 h; for Osx transcripts / Runx2 transcripts: with BMP-2, compound 100 ng/mL, 6 h and 24 h
C2C12 cells = experiment: High-throughput screen for small molecules that augment BMP-2 induced ALP expression (osteoblast conversion); format: cell-based, mouse; conditions: DM + BMP-2 + compound at target concentration 1 μM, 72 h, duplicate; ImageJ, Digilab and visual inspection analyses
Experimental: The level of alkaline phosphatase (ALP) activity measured colorimetrically was scored in all wells using three criteria (see Exemplary materials and methods in the Examples section). […] ALP intensity images were acquired using a Digilab Plate reader. Images were analyzed using three independent criteria and considered for secondary screening and validation in the MC3T3 pre-osteoblast cell line Enhancement of the mRNA and protein levels of the mature osteoblast markers RunX2 and osterix was tested. *Plates were run in duplicate.
C2C12 cells were plated at 750 cells per well in a 384-square well plate and were allowed to adhere for 24 h in growth media (GM). […]
Cells were initially fixed with a fixative solution that consisted of a 3:10:26 ratio mixture of 37% formaldehyde: citrate: acetone. […] Cell number was determined based on nuclei staining with DAPI nucleic acid stain as per manufacturer's instructions (Invitrogen).
Well images identifying ALP+ cells were acquired using a MIAS-2 plate reader, as per manufacturer's instructions (Digilab, Holliston, Mass.).
Acquired images were assessed using three different search strategies (ImageJ software, Digilab software, and systematic scanning by eye); each having different sensitivities and specificities with regard to the assay. […]
Well images were analyzed using eaZYX Image Analyzer software (Digilab, Holliston, Mass.).

MC-3T3 cells = experiment: Alizarin Red staining of mineralization; format: cell-based, mouse; conditions: 100 ng/mL compound, with or without BMP-2, 21 days
[2] = system: osteoblast differentiation; conditions: cited from earlier work
[3] = system: MC3T3 pre-osteoblast cells; experiment: Western blot of phospho-Smad 1/5/8 versus total Smad 1/5/8; format: cell-based, mouse; conditions: for P-Smad 1/5/8 ratios: compound alone, without BMP-2, 5, 10 and 30 min; for phosphorylation of Smad 1/5/8 (ratio to total Smad 1/5/8): with BMP-2, compound 100 ng/mL, 5 and 10 min
MC3T3 cells = experiment: TGFβ1 mediated inhibition of osteoblast differentiation, qRT-PCR of Runx2, Osx and Smad 7; format: cell-based, mouse; conditions: for rescue of TGFβ1 mediated inhibition of BMP-2 induced Runx2 and Osx: 1 ng/mL TGFβ1 for 24 h, then BMP-2 with 100 ng/mL compound, RNA 24 h afterwards
[4] = cited from earlier work; for bone mineral density: rat studies
[5] = mice; cited from earlier work
[6] = system: Hutchinson-Gilford Progeria Syndrome cells; conditions: cited from earlier work

C=CC[C@@H]1/C=C(\C)C[C@H](C)C[C@H](OC)[C@H]2O[C@@](O)(C(=O)C(=O)N3CCCC[C@H]3C(=O)O[C@H](/C(C)=C/[C@@H]3CC[C@@H](O)[C@H](OC)C3)[C@H](C)[C@@H](O)CC1=O)[C@H](C)C[C@@H]2OC [FK-506]
Ocn transcripts (late differentiation) [1]: significantly increased
Osx mRNA levels [1]: sufficient to increase
Runx2 mRNA levels [1]: sufficient to increase
Osx transcripts [1]: significantly increased
Runx2 transcripts [1]: significantly increased
enhancement of BMP-2 induced ALP expression (screen hit) (C2C12 cells): identified in all three analyses
mineralization (Alizarin-Red staining) (MC-3T3 cells): an increase in the level of mineralization
osteoblast differentiation ([2]; higher concentrations (>25 μM)): inhibit osteoblast differentiation
osteoblast differentiation ([2]; in vitro, low concentrations (10 nM-1 μM)): enhance osteoblast differentiation
P-Smad 1/5/8 ratios [3]: sufficient to increase
phosphorylation of Smad 1/5/8 (ratio to total Smad 1/5/8) [3]: an increase in phosphorylation was also observed
rescue of TGFβ1 mediated inhibition of BMP-2 induced Runx2 and Osx (MC3T3 cells): no apparent rescue of TGFβ1 mediated suppression
bone mineral density [4]: decrease bone mineral density
bone formation in alveolar bone ([4]; rats): increased bone formation

CO[C@H]1C[C@@H]2CC[C@@H](C)[C@@](O)(O2)C(=O)C(=O)N2CCCC[C@H]2C(=O)O[C@H]([C@H](C)C[C@@H]2CC[C@@H](O)[C@H](OC)C2)CC(=O)[C@H](C)/C=C(\C)[C@@H](O)[C@@H](OC)C(=O)[C@H](C)C[C@H](C)/C=C/C=C/C=C/1C [rapamycin]
Ocn transcripts (late differentiation) [1]: not with rapamycin
Osx mRNA levels [1]: sufficient to increase
Runx2 mRNA levels [1]: sufficient to increase
Osx transcripts [1]: significantly increased
Runx2 transcripts [1]: significantly increased
enhancement of BMP-2 induced ALP expression (screen hit) (C2C12 cells): identified in all three analyses
longevity [5]: increase longevity
mineralization (Alizarin-Red staining) (MC-3T3 cells): did not enhance
cell phenotype [6]: reverse the phenotype
P-Smad 1/5/8 ratios [3]: sufficient to increase
phosphorylation of Smad 1/5/8 (ratio to total Smad 1/5/8) [3]: significantly increased phosphorylation
rescue of TGFβ1 mediated inhibition of BMP-2 induced Runx2 and Osx (MC3T3 cells): the ability of TGFβ1 to inhibit osteoblast formation was attenuated
Smad 7 expression (transcripts) (MC3T3 cells; in the context of BMP-2 and TGFβ1): augmented Smad 7 expression
bone mineral density [4]: bone sparing
